Measurements from PubChem BioAssay AID1671190 (National Center for Advancing Translational Sciences (NCATS), 2021).
Screen size: about 580,000 compounds; about 6,100 (1.1%) were called active. Inconclusive means that the source gave no clear call. Such entries were picked first, then a sample of the others. Calls come from the whole dose curve; as a rule, active = well fitted inhibition curve with a large enough effect; inconclusive = small, poorly fitted or top-dose-only effect, or another doubt; inactive = no such curve, though single readings can be large or run the other way. Potencies of inconclusive entries are doubtful fits and often do not repeat.

The chains behind the UniProt entries cited, without tags or fusion partners.
UniProt P18054, whole entry, looked up: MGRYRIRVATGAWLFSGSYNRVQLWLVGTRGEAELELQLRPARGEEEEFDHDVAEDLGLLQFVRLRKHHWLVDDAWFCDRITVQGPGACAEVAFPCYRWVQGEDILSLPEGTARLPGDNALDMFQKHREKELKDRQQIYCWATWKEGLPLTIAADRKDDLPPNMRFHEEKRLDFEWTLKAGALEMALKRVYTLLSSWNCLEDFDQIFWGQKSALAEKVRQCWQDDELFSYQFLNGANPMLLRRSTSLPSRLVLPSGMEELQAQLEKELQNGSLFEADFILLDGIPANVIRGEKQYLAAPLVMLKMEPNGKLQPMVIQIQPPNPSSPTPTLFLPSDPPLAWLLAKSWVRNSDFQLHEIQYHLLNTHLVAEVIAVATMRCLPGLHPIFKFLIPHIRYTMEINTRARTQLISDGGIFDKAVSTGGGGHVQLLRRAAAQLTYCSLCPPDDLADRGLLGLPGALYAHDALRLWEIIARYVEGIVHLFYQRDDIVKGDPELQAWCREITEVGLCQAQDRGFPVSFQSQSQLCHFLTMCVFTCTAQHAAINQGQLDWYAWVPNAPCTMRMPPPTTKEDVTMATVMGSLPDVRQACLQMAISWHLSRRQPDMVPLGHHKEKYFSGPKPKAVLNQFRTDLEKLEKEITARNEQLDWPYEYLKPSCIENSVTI

These compounds were tested against Polyunsaturated fatty acid lipoxygenase ALOX12 (Homo sapiens) (UniProt P18054) (assay: Primary qHTS assay for inhibitors of human arachidonate 12S-lipoxygenase (ALOX12): Round 2). Details: purified 12hLO, xylenol orange hydroperoxide absorbance; activity change, negative = inhibition: at 108 µM (top of the series) unless noted.
How it was run: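 Purified human 12hLO at 150 nM in 25 mM Hepes, 0.01% Triton X-100, pH 7.0, preincubated 15 min at room temperature with compound. Reaction started with 40 uM arachidonic acid, 30 min at room temperature. Hydroperoxide measured by Fe-xylenol orange, 573/405 nm absorbance ratio.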
% is set by controls: 0 for no effect and ±100 for the full control effect; potency is the fitted concentration of half-maximal effect.

Structure (SMILES) | Potency | activity change, negative = inhibition
Cc1ccc2cc(CN(CC3CCCO3)C(=S)NCc3ccco3)c(=O)[nH]c2c1C (stereo unspecified) | inconclusive: 50.1 µM [inhibitor, partial curve, poor fit] | 
CCOC(=O)[C@H]1[C@H]2COc3ccc(C)cc3[C@@H]2N2C(=O)c3ccc(C)cc3NC(=O)[C@@]12C | inconclusive: 112 µM [inhibitor, single point] | 
Cc1ccc(S(=O)(=O)N2CCC(C(=O)O)CC2)cc1C(=O)O | inconclusive: 44.7 µM [inhibitor, partial curve, poor fit] | 
CC1CCCN(c2c3c(nc4ccccc24)CCCC3)C1 (stereo unspecified) | inconclusive: 89.1 µM [inhibitor, single point] | 
COC(=O)c1ccc(C)c(NC(=O)CCn2[nH]c(=O)ccc2=O)c1 | inconclusive: 56.2 µM [inhibitor, partial curve, poor fit] | 
Cc1ccc(S(=O)(=O)Nc2ccccc2NS(=O)(=O)c2ccc(C)cc2)cc1 | active: 7.94 µM | 
COc1ccc(C2/C=C\CN(C(=O)OCc3ccccc3)CC(=O)N2Cc2ccc(F)cc2)cc1 (stereo unspecified) | inconclusive: 2.51 µM [inhibitor, full curve, poor fit] | 
Cc1cccc(C)c1NC(=O)C(C)n1c(-c2ccc(=O)[nH]c2)nc2ccccc21 (stereo unspecified) | inactive | 
COC(=O)c1c(NC(=O)c2ccc(S(=O)(=O)N3CC(C)OC(C)C3)cc2)sc2c1CCN(C)C2 (stereo unspecified) | inconclusive: 44.7 µM [inhibitor, partial curve] | 
Cc1cnc(C(=O)Nc2ccccc2C(=O)NCCc2ccccc2)cn1 | inactive | 
CCc1ccc2[nH]c(=O)c(C(c3nnnn3Cc3ccco3)N3CCC(C)CC3)cc2c1 (stereo unspecified) | inconclusive: 3.98 µM [inhibitor, full curve, poor fit] | 
Clc1ccc(-c2csc(=Nc3cccnc3)n2CCCn2ccnc2)cc1Cl | inactive | 
Cc1cccc2c1NC(=O)C2(O)c1c(C)[nH]c2ccccc12 (stereo unspecified) | inactive | 
Cc1ccccc1NC(=O)c1nc(S(C)(=O)=O)ncc1N(Cc1ccco1)Cc1ccco1 | inactive | 
COc1ccc(CN(C(C)=O)c2ccccc2C(=O)O)cc1 | inactive | 
O=C(COC(=O)c1ccc([N+](=O)[O-])o1)Nc1ccc2c(c1)OC(F)(F)O2 | inactive | 
Cc1ccc([N+](=O)[O-])c(C)c1N | inactive | 
CC(C)Oc1ccc(OCCn2c(=S)[nH]c3c(N)ncnc32)cc1 | active: 44.7 µM | 
CCOC(=O)C1(Cc2cccc(F)c2)CCN(Cc2cn(CC)nc2C)CC1 | inconclusive: 158 µM [inhibitor, single point] | 
O=C(/C=C/c1ccccc1)N1CCC(c2nc3ccccc3o2)CC1 | inactive | 
CC(=O)c1cc(C(=O)Nc2cccc(C)c2)c2ccccn12 | inconclusive: 79.4 µM [inhibitor, partial curve, poor fit] | 
O=C(CCl)N1CCN(S(=O)(=O)c2ccc3ccccc3c2)CC1 | inconclusive: 100 µM [inhibitor, partial curve, poor fit] | 
COc1ccc(-c2nnn3c2nc(N2CCCC(C)C2)c2ccccc23)cc1 (stereo unspecified) | inconclusive: 141 µM [inhibitor, partial curve, poor fit] | 
CCOc1ccc(N2CC(C(=O)NCCc3ccccc3)CC2=O)cc1 (stereo unspecified) | inconclusive: 100 µM [inhibitor, single point] | 

Whole records, looked up by structure:
Cc1ccc(S(=O)(=O)Nc2ccccc2NS(=O)(=O)c2ccc(C)cc2)cc1 reads Potency: active: 7.94 µM
Cc1ccc(S(=O)(=O)N2CCC(C(=O)O)CC2)cc1C(=O)O reads Potency: inconclusive: 44.7 µM [inhibitor, partial curve, poor fit]
Cc1cccc2c1NC(=O)C2(O)c1c(C)[nH]c2ccccc12 (stereo unspecified) reads Potency: inactive

The results go on.

Structure (SMILES) | Potency | activity change, negative = inhibition
O=C(CSc1nnc(Cc2cccs2)n1Cc1ccco1)Nc1cccc(Cl)c1 | inactive | 
Fc1ccc(OCCOC2CCNCC2)cc1 | inactive | 
CCOc1ccccc1OCCCNCc1ccccc1 | inconclusive: 0.316 µM [inhibitor, full curve] | 
CC(C)Cn1c(N)c(C(=O)COC(=O)c2ccc(F)cc2)c(=O)n(C)c1=O | inactive | 
CN(CC(=O)NC(C)(C)C)Cc1cccc2cccnc12 | inactive | 
CCOc1ccc(NC(=O)CSc2ncc3c(n2)-c2ccccc2N(C)S3(=O)=O)cc1 | inconclusive: 89.1 µM [inhibitor, partial curve, poor fit] | 
COCCN1C(=O)C(=O)/C(=C(/O)c2cccc(OC)c2)C1c1ccc(C)o1 (stereo unspecified) | inconclusive: 31.6 µM [inhibitor, single point] | 
O=C(CN1CCC(c2nc3ccccc3s2)CC1)NCc1cccs1 | inactive | 
Cc1ccccc1N1CCN(C(=O)c2ccccc2NC(=O)/C=C\C(=O)O)CC1 | inconclusive: 35.5 µM [inhibitor, full curve, poor fit] | 
CCOC(=O)c1oc2cc(O)c(CC)cc2c(=O)c1-c1nc2ccccc2s1 | inconclusive: 35.5 µM [inhibitor, partial curve, poor fit] | 
CC(C)C(=O)N1CCN(c2ccc(NC(=O)c3cccs3)cc2)CC1 | inactive | 
COc1ccc(NC(=O)c2cc3ccccc3cc2OC)cc1 | inactive | 
CCN1CCN(CCOc2ccc3cc(-c4ccc(OC)cc4)c(=O)oc3c2)CC1 | inconclusive: 5.01 µM [inhibitor, full curve, poor fit] | 
O=C(N/N=C/c1ccccc1O)NC12CC3CC(CC(C3)C1)C2 | inactive | 
Cc1ccc(/C=c2\sc3nc(-c4cccnc4)nn3c2=O)cc1 | inactive | 
N#Cc1ccc(C(=O)N2CCCCCCNC(=O)[C@@H]3C[C@@H](c4nc(Cc5ccccc5)no4)C[C@@H]32)cc1 | inactive | 
CCOc1ccccc1NC(=O)CN1C(=O)C(c2ccccc2)=NC12CCCCCC2 | inactive | 
O=C(NCc1ccc(N2CCOCC2)cc1)c1cc[nH]c1C1CCCNC1 (stereo unspecified) | inactive | 
COc1ccccc1/C=C/CN1CCCC(CCC(=O)Nc2ccccc2F)C1 (stereo unspecified) | inactive | 
Cc1onc(-c2ccccc2)c1C(=O)NC(C)C1CCCO1 (stereo unspecified) | inconclusive: 89.1 µM [inhibitor, partial curve, poor fit] | 
Cc1nc2sccn2c1-c1csc(Nc2cccc(Cl)c2C)n1 | inconclusive: 44.7 µM [inhibitor, single point] | 
Nc1c2c(nc3ccccc13)CCCC2 |  | inconclusive: -45.9% [inhibitor] [at 57.4 µM]
Cc1cc(C)n(CC2(Cn3cc(C4CCCNC4)nn3)CC2)n1 (stereo unspecified) | active: 14.1 µM | 
C=CCn1c(SCC(=O)c2ccccc2)nnc1-c1ccc2c(c1)OCO2 | inconclusive: 89.1 µM [inhibitor, single point] | 

Structure (SMILES) | Potency | activity change, negative = inhibition
CC1CCN(C(=O)COc2ccccc2-c2noc(-c3ccccc3F)n2)CC1 | inconclusive: 39.8 µM [inhibitor, partial curve, poor fit] | 
CC1Cc2[nH]c(=S)[nH]c(=O)c2C(C)O1 (stereo unspecified) | inconclusive: 31.6 µM [inhibitor, partial curve, poor fit] | 
COc1ccc2cc(C(c3nnnn3C(C)(C)C)N3CCSCC3)c(=O)[nH]c2c1 (stereo unspecified) | inconclusive: 5.01 µM [inhibitor, full curve, poor fit] | 
Cc1ccc(-n2c([S-])c(C(=O)NC(C)c3ccccc3)[n+]3ccccc23)cc1 (stereo unspecified) | inconclusive: 15.8 µM [inhibitor, partial curve, poor fit] | 
COc1ccc(N2C(=O)CC(N3CCN(S(=O)(=O)c4ccc(Cl)cc4)CC3)C2=O)cc1 (stereo unspecified) | inconclusive: 0.251 µM [inhibitor, full curve, poor fit] | 
COc1ccc(OCC(=O)NCc2nc(-c3ccccc3)no2)cc1 | inconclusive: 79.4 µM [inhibitor, single point] | 
O=C(O)c1cccnc1-c1ncccc1C(=O)O | inconclusive: 20 µM [inhibitor, partial curve] | 
CC(C)c1ccc(CN2CC(CNc3cccnc3)C3(C2)CN(c2ccccc2)C3)cc1 (stereo unspecified) | inconclusive: 112 µM [inhibitor, single point] | 
CC(=O)c1ccc(N2Cc3ccccc3/C2=N\C(=O)Nc2ccccc2)cc1 | inactive | 
CCOC(=O)c1ccc(N2CCN(C(C)=O)CC2)c(NC(=O)c2ccccc2C)c1 | inconclusive: 28.2 µM [inhibitor, single point] | 
Cn1c(=O)[nH]c(=O)c2c1nc(Sc1ccccc1)n2CCCc1ccccc1 | inactive | 
Cc1ncc(CO)c(/C=N/NC(=O)c2cccc(S(=O)(=O)N3CCCC3)c2)c1O | inconclusive: 50.1 µM [inhibitor, partial curve, poor fit] | 
CCc1cc2c(=O)c(Oc3ccccc3)c(C)oc2cc1O | inactive | 
OC(c1ccc(F)c(F)c1)c1nc(-c2ccc3ccccc3c2)cs1 (stereo unspecified) | inconclusive: 70.8 µM [inhibitor, partial curve, poor fit] | 
COc1ncc(CN2CCc3c(n(CCOc4ccccc4)n(-c4ccccc4)c3=O)C2)cn1 | inconclusive: 35.5 µM [inhibitor, full curve] | 
O=S(=O)(Nc1nc2ccccc2nc1NC1CC1)c1ccc2c(c1)OCCO2 | inactive | 
O=C(Nc1cccc(Cl)c1)c1cnc2c(c1)N([S+](=O)([O-])c1cccnc1)CCC2 | inactive | 
COc1ccc2[nH]c(=O)c(CN(C)S(=O)(=O)c3ccc(C)cc3)cc2c1 | inactive | 
Cc1ccccc1CNC(=O)c1ccc(Nc2cc(-c3ccc(F)cc3)ncn2)cc1 | inactive | 
COc1ccc(Nc2nc(N)c(C(=O)c3ccc(C)cc3C)s2)cc1 | inconclusive: 44.7 µM [inhibitor, partial curve, poor fit] | 
O=C(Cc1ccccc1[N+](=O)[O-])NCc1ccco1 | inconclusive: 50.1 µM [inhibitor, partial curve, poor fit] | 
O=S(=O)(NCCc1csc(-c2ccc(F)cc2)n1)c1ccc(Cl)cc1 | active: 28.2 µM | 
Cc1ccc(CN2CCC(CN)CC2)cc1 | inconclusive: 56.2 µM [inhibitor, partial curve, poor fit] | 
